Results are given in words; binding and its absence hold for the method and conditions named. Binding seen in cells or lysates may run through a third protein. A result given as binding can be weak or reduced; the word gives no strength. Where a sequence is shown, tags or fusion partners need not be part of it.
What was measured:
Experiment in all cases: co-IP
[1] = target: POPDC1 Δ116-Myc (not stated (human or mouse cDNA cloned))
[2] = target: POPDC1 Δ172-Myc (not stated (human or mouse cDNA cloned))
[3] = target: POPDC1 Δ236-Myc (not stated (human or mouse cDNA cloned))
[4] = target: POPDC1 Δ245-Myc (not stated (human or mouse cDNA cloned))

Measured: binding

B1: POPDC2-FLAG (protein, UniProt Q9HBU9 1-364)
chain: MSANSSRVGQLLLQGSACIRWKQDVEGAVYHLANCLLLLGFMGGSGVYGCFYLFGFLSAGYLCCVLWGWFSACGLDIVLWSFLLAVVCLLQLAHLVYRLREDTLPEEFDLLYKTLCLPLQVPLQTYKEIVHCCEEQVLTLATEQTYAVEGETPINRLSLLLSGRVRVSQDGQFLHYIFPYQFMDSPEWESLQPSEEGVFQVTLTAETSCSYISWPRKSLHLLLTKERYISCLFSALLGYDISEKLYTLNDKLFAKFGLRFDIRLPSLYHVLGPTAADAGPESEKGDEEVCEPAVSPPQATPTSLQQTPPCSTPPATTNFPAPPTRARLSRPDSGILASRIPLQSYSQVISRGQAPLAPTHTPEL
binds: all assays above
